PubChem BioAssay AID1671195, Yale University | 2021
The deposit covers about 22,000 reagents; this is a part drawn at random. Over the whole deposit, about 1,510 (6.9%) were called active. 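Active includes knockdowns raising or lowering LDL uptake; positive z-scores mean more uptake, negative mean less.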

- Purpose: 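Knockdowns that increase or decrease uptake of fluorescent LDL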 (primary screen)
- System: human Huh7 hepatoma cells
- Reagent: siRNA pool against human genes, 18 nM
- Timing: about 2 to 2.5 days of knockdown, then 8 h LDL uptake
- Challenge: DiI-labelled LDL at 30 µg/ml for 8 h, in lipoprotein-deficient serum medium
- Read-out: 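Per-cell DiI-LDL intensity by automated imaging; well means scaled to the plate median and given as a robust z-score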
- Direction: robust z-score: higher = more LDL uptake after knockdown
- Rule for the call: 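a gene counts as active if at least two replicate z-scores exceed ±2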

| gene | robust z-score, replicate 1 | robust z-score, replicate 2 | robust z-score, replicate 3 | call |
| --- | --- | --- | --- | --- |
| RPF2 | 2.96 | 2.66 | 3.39 | active |
| ANKAR | 1.95 | 2.2 | 0.722 | active |
| ABHD14B | -0.272 | -0.252 | -0.3 | inactive |
| NAGS | 0.417 | 0.729 | 0.849 | inactive |
| ADAM23 | 0.572 | 0.55 | 1.19 | inactive |
| TMCO5A | -2.18 | -2.11 | -2.12 | active |
| PAG1 | -0.87 | -1.48 | -0.811 | inactive |
| ZNF776 | -0.19 | -0.684 | -0.82 | inactive |
| TAF4 | 0.745 | -0.0459 | -0.106 | inactive |
| HIPK1 | -0.302 | -1.02 | -0.573 | inactive |
| NDUFA6 | 2.51 | 0.101 | -0.497 | inactive |
| NDFIP2 | 0.238 | 0.302 | -0.0996 | inactive |
| RPSAP24 | -0.366 | -1.37 | -1.27 | inactive |
| RHOBTB2 | -2.18 | -0.764 | -1.3 | inactive |
| LOC442044 (retired record) | 1.08 | 0.794 | -0.121 | inactive |
| PTPN20 | 0.606 | -0.189 | 0.375 | inactive |
| DDIT3 | -0.555 | -1.95 | -0.671 | inactive |
| LOC219797 (retired record) | -0.175 | 0.16 | 0.155 | inactive |
| LOC392084 (retired record) | 0.136 | -0.586 | -0.508 | inactive |
| PIK3R6 | -1.02 | -0.919 | -1.38 | inactive |
| UROD | -1.19 | -1.02 | -1.48 | inactive |
| TECR | 0.748 | 1.73 | 1.31 | inactive |
| SYT6 | 1.79 | 1.88 | 1.64 | inactive |
| TCP1 | 0.501 | 0.284 | 0.314 | inactive |
| FOLR2 | -1.91 | -2.18 | -1.78 | active |
| LOC389392 (retired record) | 0.177 | -0.0644 | -0.0156 | inactive |
| CPNE3 | 0.466 | 0.564 | 2.95 | inactive |
| RSL1D1 | -0.656 | 0.161 | 0.661 | inactive |
| CHRNA7 | -1.65 | -1.6 | -2.1 | inactive |
| BTF3L4P3 | 2.17 | 1.83 | 1.91 | active |
| HMMR | -1.93 | -1.81 | -0.868 | inactive |
| CNPY4 | -0.229 | -0.363 | -0.41 | inactive |
| TSSK6 | 0.644 | 0.485 | 1.32 | inactive |
| LOC441952 (retired record) | -2.13 | -2.17 | -2.06 | active |
| TMEM63C | 0.584 | 0.935 | -0.0268 | inactive |
| LOC440698 (retired record) | -0.479 | -0.619 | -0.411 | inactive |
| LOC401945 (retired record) | -1.11 | 0.178 | -0.752 | inactive |
| ZBTB7B | -1.53 | -1 | -1.34 | inactive |
| OSMR | 1.13 | 1.05 | 0.882 | inactive |
| UBE2D3 | 0.613 | 1.3 | 0.434 | inactive |
| TOPBP1 | -0.491 | -0.681 | -0.355 | inactive |
| ACTG1 | 0.0632 | 0.195 | 0.321 | inactive |
| TTC14 | 1.66 | 0.806 | 1.71 | inactive |
| GSTA5 | -0.307 | -2.18 | 0.491 | inactive |
| RBM47 | -0.159 | -0.803 | 0.463 | inactive |
| KCNQ2 | 0.99 | 1.45 | 0.386 | inactive |
| TMEM216 | 0.583 | -0.893 | 0.0759 | inactive |
| SCRN3 | -0.758 | 0.708 | 0.645 | inactive |
| MMP24 | -1.63 | -1.51 | -0.248 | inactive |
| FAM216A | 1.14 | 2.59 | 0.643 | inactive |
| TCF21 | 0.367 | -0.725 | 0.207 | inactive |
| MGAT4A | -0.0466 | -0.23 | -0.402 | inactive |
| WDR25 | 0.565 | -0.266 | 0.0858 | inactive |
| R3HCC1L | 0.489 | 0.221 | -0.82 | inactive |
| SLC25A3 | -1.83 | -1.47 | -1.03 | inactive |
| CCNB3 | 0.941 | 0.923 | 1.43 | inactive |
| POU6F1 | -1.65 | -2.02 | -1.79 | inactive |
| C12orf57 | -0.431 | 0.0822 | 0.0854 | inactive |
| PDGFA | 0.233 | -1.31 | 0.378 | inactive |
| OR5B17 | 0.145 | -0.622 | -0.404 | inactive |
| ZNF264 | 0.42 | -0.405 | 0.401 | inactive |
| PCDHGB3 | -2.42 | -2.27 | -1.89 | active |
| LENG9 | 1.15 | 1.35 | 2.06 | inactive |
| FGFR1OP2 | -1.77 | -0.641 | -1.08 | inactive |
| PAIP2B | -0.587 | -0.995 | -0.737 | inactive |
| LAMB4 | 0.637 | -1.03 | -0.169 | inactive |
| C1orf198 | 2.69 | 2.21 | 3.24 | active |
| EPPK1 | -1.52 | -0.6 | -1.83 | inactive |
